Experimental data as given in patent US20160244525A1.
Results are given in words; binding and its absence hold for the method and conditions named. Some results given as binding are weak or reduced against the parent protein; the word gives no strength.

Biological target: T1, hKLB
T1 sequence: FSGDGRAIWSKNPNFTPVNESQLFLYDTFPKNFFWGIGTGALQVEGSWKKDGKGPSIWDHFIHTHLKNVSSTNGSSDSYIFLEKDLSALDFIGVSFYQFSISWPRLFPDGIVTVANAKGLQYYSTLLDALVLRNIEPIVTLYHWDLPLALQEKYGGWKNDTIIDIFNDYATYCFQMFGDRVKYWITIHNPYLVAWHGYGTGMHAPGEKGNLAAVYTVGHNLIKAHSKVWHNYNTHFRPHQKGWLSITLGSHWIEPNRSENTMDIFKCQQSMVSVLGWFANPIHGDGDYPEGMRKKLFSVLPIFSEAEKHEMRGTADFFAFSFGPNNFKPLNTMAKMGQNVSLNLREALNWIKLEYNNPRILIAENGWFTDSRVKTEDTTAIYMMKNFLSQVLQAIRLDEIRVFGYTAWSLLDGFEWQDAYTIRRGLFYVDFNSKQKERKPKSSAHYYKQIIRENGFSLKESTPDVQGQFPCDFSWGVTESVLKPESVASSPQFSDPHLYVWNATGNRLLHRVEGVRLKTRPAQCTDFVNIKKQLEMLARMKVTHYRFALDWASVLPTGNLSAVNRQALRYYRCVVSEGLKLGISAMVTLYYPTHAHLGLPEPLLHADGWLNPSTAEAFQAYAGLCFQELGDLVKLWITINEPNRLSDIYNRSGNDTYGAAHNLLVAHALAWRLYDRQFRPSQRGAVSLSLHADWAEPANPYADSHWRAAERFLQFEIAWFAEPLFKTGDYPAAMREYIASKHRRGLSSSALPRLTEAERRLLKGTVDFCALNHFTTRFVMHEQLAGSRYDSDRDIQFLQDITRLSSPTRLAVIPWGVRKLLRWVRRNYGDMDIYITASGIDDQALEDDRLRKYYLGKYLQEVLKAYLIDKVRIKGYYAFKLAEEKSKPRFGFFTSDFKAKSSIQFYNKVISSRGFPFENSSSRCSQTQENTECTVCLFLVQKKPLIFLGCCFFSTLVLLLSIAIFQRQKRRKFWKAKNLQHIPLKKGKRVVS
Test: FACS on 293 cells expressing hKLB, antibody at 0.8 ug/ml

B1: 8E1 (antibody, V domains shown)
VH: EVQLQQSGAELVKPGASVKLSCTAADFNIKDTYMHWVKQRPEQGLEWIGRIDPSNGNAKYDPKFQGKASITADSSSNTAYLHLSSLTSEDTAVYYCASRALGNGYALGYWGQGTSVTVSS
VL: DIQMTQSSSYLSVSLGGSVTITCKASDHINNWLAWYQQKPGNAPRLLIYGTTNLETGVPSRFSGSGSGRDYILSITSLQSEDVASYYCQQYWNTPFTFGSGTKLEIK
binding: binds
